# Laboratory results taken from patent US20040110228A1, “Combinatorial organic synthesis of unique biologically active compounds” (priority 2002, published 2004).
# At least one peptide structure holds a part that was inferred or is arguable (an end, a ring closure or a residue). Where no end group is shown, it is not given here.
# System: Salmonella typhimurium
# Assay: cell growth assay (OD600)
# Format: cell-based
# Settings: Salmonella enterica serovar Typhimurium Ames strain and LT2 strain; peptides in the medium
substance,measurement,value
"WKHYNY [WKHYNY, reference compound]","inhibition of bacterial cell growth, FIG. 12",inhibition of bacterial cell growth
